Record: PubChem BioAssay AID1224830 (NIAID, 2016)

- Test: 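Regulators of TLR4 signalling towards TNF-alpha in macrophage-like cells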 (primary screen)
- Cell system: human THP-1 monocytic leukaemia cells, TNF dual-luciferase reporter clone, PMA-differentiated to macrophage-like cells
- Reagent: siRNA pool against human genes, 50 nM
- Duration: LPS for 4 h, given about 3 days after siRNA transfection
- Conditions: bacterial LPS (TLR4 ligand), 10 ng/ml
- Measured: 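Ratio of firefly to renilla light, scaled to the plate median and expressed as a robust z-score per replicate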
- Scale: TNF reporter robust z-score: higher = stronger TNF reporter response to LPS
- Call rule: 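a well is active when its z-score exceeds 2.8 or falls below -1.5; control wells carry no call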
The whole screen tested about 18,000 reagents; shown is an unselected part. About 2,900 of all reagents (16%) were called active. 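Calls are made per well; low scores hint the gene aids the LPS response, high scores that it dampens it.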 Repeated entries: four replicate wells of each siRNA pool.

gene knocked down | TNF reporter robust z-score | Outcome
ADAM10 (GeneID 102) | 0.85 | inactive
ADAM10 (GeneID 102) | 2.52 | inactive
ADAM10 (GeneID 102) | 0.29 | inactive
ADAM10 (GeneID 102) | 0.56 | inactive
PRMT8 (GeneID 56341) | -0.93 | inactive
PRMT8 (GeneID 56341) | -0.99 | inactive
PRMT8 (GeneID 56341) | -0.43 | inactive
PRMT8 (GeneID 56341) | -0.24 | inactive
RNF208 (GeneID 727800) | -0.42 | inactive
RNF208 (GeneID 727800) | 1.95 | inactive
RNF208 (GeneID 727800) | 1.69 | inactive
RNF208 (GeneID 727800) | 0.04 | inactive
TM4SF1 (GeneID 4071) | 3.76 | active
TM4SF1 (GeneID 4071) | 2.89 | active
TM4SF1 (GeneID 4071) | 2.92 | active
TM4SF1 (GeneID 4071) | 0.08 | inactive
ATP2A3 (GeneID 489) | 1.09 | inactive
ATP2A3 (GeneID 489) | 0.51 | inactive
ATP2A3 (GeneID 489) | -0.69 | inactive
ATP2A3 (GeneID 489) | -0.55 | inactive
KRTAP9-2 (GeneID 83899) | -1.43 | inactive
KRTAP9-2 (GeneID 83899) | 0.24 | inactive
KRTAP9-2 (GeneID 83899) | 0.54 | inactive
KRTAP9-2 (GeneID 83899) | 0.61 | inactive
RAMP3 (GeneID 10268) | -0.25 | inactive
RAMP3 (GeneID 10268) | 0.46 | inactive
RAMP3 (GeneID 10268) | -0.37 | inactive
RAMP3 (GeneID 10268) | -0.08 | inactive
GKN1 (GeneID 56287) | -0.65 | inactive
GKN1 (GeneID 56287) | -0.32 | inactive
GKN1 (GeneID 56287) | -1.03 | inactive
GKN1 (GeneID 56287) | -0.63 | inactive
PITPNC1 (GeneID 26207) | 1.24 | inactive
PITPNC1 (GeneID 26207) | 1.4 | inactive
PITPNC1 (GeneID 26207) | 1.16 | inactive
PITPNC1 (GeneID 26207) | 1.59 | inactive
NAP1L5 (GeneID 266812) | 0.26 | inactive
NAP1L5 (GeneID 266812) | 0.31 | inactive
NAP1L5 (GeneID 266812) | 0.39 | inactive
NAP1L5 (GeneID 266812) | 0.33 | inactive

The list goes on, starting with the last 13 of the part before.
gene knocked down | TNF reporter robust z-score | Outcome
RAMP3 (GeneID 10268) | -0.08 | inactive
GKN1 (GeneID 56287) | -0.65 | inactive
GKN1 (GeneID 56287) | -0.32 | inactive
GKN1 (GeneID 56287) | -1.03 | inactive
GKN1 (GeneID 56287) | -0.63 | inactive
PITPNC1 (GeneID 26207) | 1.24 | inactive
PITPNC1 (GeneID 26207) | 1.4 | inactive
PITPNC1 (GeneID 26207) | 1.16 | inactive
PITPNC1 (GeneID 26207) | 1.59 | inactive
NAP1L5 (GeneID 266812) | 0.26 | inactive
NAP1L5 (GeneID 266812) | 0.31 | inactive
NAP1L5 (GeneID 266812) | 0.39 | inactive
NAP1L5 (GeneID 266812) | 0.33 | inactive
AFP (GeneID 174) | -1.82 | active
AFP (GeneID 174) | -1.58 | active
AFP (GeneID 174) | -0.96 | inactive
AFP (GeneID 174) | -0.33 | inactive
SETD5 (GeneID 55209) | 1.66 | inactive
SETD5 (GeneID 55209) | -0.71 | inactive
SETD5 (GeneID 55209) | -0.68 | inactive
SETD5 (GeneID 55209) | -0.36 | inactive
PIK3C2A (GeneID 5286) | -1.72 | active
PIK3C2A (GeneID 5286) | -1.4 | inactive
PIK3C2A (GeneID 5286) | -1.58 | active
PIK3C2A (GeneID 5286) | -1.18 | inactive
LCE2C (GeneID 353140) | -0.43 | inactive
LCE2C (GeneID 353140) | -0.44 | inactive
LCE2C (GeneID 353140) | -1.01 | inactive
LCE2C (GeneID 353140) | -1.15 | inactive
NKAIN3 (GeneID 286183) | -1.48 | inactive
NKAIN3 (GeneID 286183) | 0.54 | inactive
NKAIN3 (GeneID 286183) | 1.39 | inactive
NKAIN3 (GeneID 286183) | 0.38 | inactive
NODAL (GeneID 4838) | 0.35 | inactive
NODAL (GeneID 4838) | 0.51 | inactive
NODAL (GeneID 4838) | 0.71 | inactive
NODAL (GeneID 4838) | 0.78 | inactive
CHN2 (GeneID 1124) | 0.1 | inactive
CHN2 (GeneID 1124) | -0.4 | inactive
CHN2 (GeneID 1124) | -0.33 | inactive
CHN2 (GeneID 1124) | -0.86 | inactive
PTPRU (GeneID 10076) | -0.73 | inactive
PTPRU (GeneID 10076) | -0.67 | inactive
PTPRU (GeneID 10076) | 0.02 | inactive
PTPRU (GeneID 10076) | -0.09 | inactive
PTGR1 (GeneID 22949) | -0.5 | inactive
PTGR1 (GeneID 22949) | -0.4 | inactive
PTGR1 (GeneID 22949) | -0.36 | inactive
PTGR1 (GeneID 22949) | -0.1 | inactive
C1QTNF9B (GeneID 387911) | 0.22 | inactive
C1QTNF9B (GeneID 387911) | 0.08 | inactive
C1QTNF9B (GeneID 387911) | 0.27 | inactive
C1QTNF9B (GeneID 387911) | 0.42 | inactive
OR5K2 (GeneID 402135) | -0.85 | inactive
OR5K2 (GeneID 402135) | 0.03 | inactive
OR5K2 (GeneID 402135) | -1.86 | active
OR5K2 (GeneID 402135) | 0.05 | inactive
NSA2 (GeneID 10412) | -0.13 | inactive
NSA2 (GeneID 10412) | -0.67 | inactive
NSA2 (GeneID 10412) | -0.33 | inactive
NSA2 (GeneID 10412) | 0.1 | inactive
H3C10 (GeneID 8357) | 0.34 | inactive
H3C10 (GeneID 8357) | -0.4 | inactive
H3C10 (GeneID 8357) | -0.28 | inactive
H3C10 (GeneID 8357) | -0.21 | inactive
AAMDC (GeneID 28971) | 2.41 | inactive
AAMDC (GeneID 28971) | 5.88 | active
AAMDC (GeneID 28971) | 3.13 | active
AAMDC (GeneID 28971) | 2.62 | inactive
DACT1 (GeneID 51339) | 1.13 | inactive
DACT1 (GeneID 51339) | 1.68 | inactive
DACT1 (GeneID 51339) | 0.97 | inactive
DACT1 (GeneID 51339) | 0.64 | inactive
AZU1 (GeneID 566) | -1.73 | active
AZU1 (GeneID 566) | -1.55 | active
AZU1 (GeneID 566) | -1.33 | inactive
AZU1 (GeneID 566) | -0.29 | inactive
FKBP10 (GeneID 60681) | 4.12 | active
FKBP10 (GeneID 60681) | 1.98 | inactive
FKBP10 (GeneID 60681) | 3.11 | active
FKBP10 (GeneID 60681) | 4.42 | active
PRDM5 (GeneID 11107) | 0.15 | inactive
PRDM5 (GeneID 11107) | 0.68 | inactive
PRDM5 (GeneID 11107) | -0.01 | inactive
PRDM5 (GeneID 11107) | -0.81 | inactive
